{"source": "patent US6608174B1", "about": "“Radiolabeled vasoactive intestinal peptide analogs for diagnosis and radiotherapy” (Dabur Research Foundation, priority 2000, dated 2003)", "tested_on": "human adenocarcinoma tumor", "assay_type": "in vivo, NIH nu/nu nude mice", "text": "Tc-99m labeled peptide (SEQ ID NO: 10) was used to image tumors induced subcutaneously in the abdomen of NIH nu/nu nude mice. Following intravenous administration in human adenocarcinoma tumor bearing nude mice, images were taken at different time intervals post […], using a conventional gamma camera. […] The results are shown in FIG. 1 which clearly depicts that the accumulation of Tc-99m labeled VIP analog is high in tumor (indicated with arrow) as compared to the accumulation in viscera (unmarked dots) after 3 hours of injection.", "note": "Part of at least one peptide drawing is inferred or uncertain, most often the ends. Square brackets hold non-standard residues; d marks the D form. Peptide text beside a SMILES is read from it. * marks the point of attachment. DTPA = O=C(O)CN(CCN(CC(=O)O)CC(=O)O)CCN(CC(=O)O)CC(=O)*; dPhe(4-Cl) = N[C@H](Cc1ccc(Cl)cc1)C(=O)O; Aib = CC(C)(N)C(=O)O; Ahx = NCCCCCC(=O)O"}
{"smiles": "CC[C@H](C)[C@H](NC(=O)[C@H](CO)NC(=O)[C@H](CC(N)=O)NC(=O)[C@H](CC(C)C)NC(=O)[C@H](Cc1ccc(O)cc1)NC(=O)[C@H](CCCCN)NC(=O)[C@H](CCCCN)NC(=O)[C@@H](NC(=O)[C@H](C)NC(=O)[C@H](CC(C)C)NC(=O)[C@H](CCC(N)=O)NC(=O)[C@H](CCCCN)NC(=O)[C@H](CCCNC(=N)N)NC(=O)[C@H](CC(C)C)NC(=O)[C@H](CCCNC(=N)N)NC(=O)[C@@H](NC(=O)[C@H](Cc1ccc(O)cc1)NC(=O)[C@H](CC(N)=O)NC(=O)[C@H](CC(=O)O)NC(=O)[C@@H](NC(=O)[C@@H](Cc1ccc(Cl)cc1)NC(=O)[C@@H](NC(=O)C(C)(C)NC(=O)[C@H](CC(=O)O)NC(=O)[C@H](CO)NC(=O)[C@H](Cc1c[nH]cn1)NC(=O)CCCCCNC(=O)CN(CCN(CCN(CC(=O)O)CC(=O)O)CC(=O)O)CC(=O)O)C(C)C)[C@@H](C)O)[C@@H](C)O)C(C)C)C(=O)N[C@@H](CC(C)C)C(=O)N[C@@H](CC(N)=O)C(N)=O", "note": "[Tc-99m labeled peptide (SEQ ID NO: 10), metal not drawn] ({DTPA-Ahx}-HSD[Aib]V[dPhe(4-Cl)]TDNYTRLRKQLAVKKYLNSILN-NH2)", "values": [{"measurement": "accumulation in tumor as compared to viscera", "setting": "after 3 hours of injection, FIG. 1", "result": "high in tumor"}, {"measurement": "time at which tumor uptake achieves significant levels", "setting": "post injection, intravenous, tumor bearing nude mice", "result": 15, "unit": "min"}, {"measurement": "time of maximum binding", "setting": "tumor bearing nude mice", "result": 3, "unit": "h"}]}
